In publication PMC5057473:
No constants are given. Whether binding was seen depends on the method and setting. Binding seen in cells or lysates may run through a third protein. Binding calls can cover weak binding; strength is not graded here. Where a sequence is shown, tags or fusion partners need not be part of it.

Target: T1, GFP-tagged TSG (mouse) (UniProt Q5RI75)
T1 sequence: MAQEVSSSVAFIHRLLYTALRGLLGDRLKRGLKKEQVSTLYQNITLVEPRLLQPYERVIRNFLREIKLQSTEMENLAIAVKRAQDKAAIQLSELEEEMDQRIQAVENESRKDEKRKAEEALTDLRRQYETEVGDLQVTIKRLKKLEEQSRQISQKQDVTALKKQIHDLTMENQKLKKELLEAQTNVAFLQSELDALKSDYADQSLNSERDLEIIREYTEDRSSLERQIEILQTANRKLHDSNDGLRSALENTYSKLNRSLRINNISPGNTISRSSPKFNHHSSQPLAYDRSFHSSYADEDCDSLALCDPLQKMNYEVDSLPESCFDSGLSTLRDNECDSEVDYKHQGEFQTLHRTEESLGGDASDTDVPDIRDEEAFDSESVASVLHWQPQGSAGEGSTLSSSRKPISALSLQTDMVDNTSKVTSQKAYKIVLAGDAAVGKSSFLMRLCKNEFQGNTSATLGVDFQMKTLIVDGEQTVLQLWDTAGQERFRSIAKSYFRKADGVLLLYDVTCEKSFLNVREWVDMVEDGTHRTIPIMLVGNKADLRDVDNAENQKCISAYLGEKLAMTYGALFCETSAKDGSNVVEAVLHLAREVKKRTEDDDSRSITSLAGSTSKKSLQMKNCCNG
Assay: co-IP; Cos-7 cells transfected with GFP or GFP-TSG; lysate immunoprecipitated with anti-GFP antibody, blotted with anti-actin or anti-GFP

Substance: actin
- binding: binds
